For orientation: Kd means the free concentration of one partner at which half of the binding sites on the other are occupied at equilibrium, for simple one-to-one binding. A low value points to higher affinity.

Chains of the proteins cited; added tags and fusions are not shown.
UniProt D5EHC5, entry or part of it: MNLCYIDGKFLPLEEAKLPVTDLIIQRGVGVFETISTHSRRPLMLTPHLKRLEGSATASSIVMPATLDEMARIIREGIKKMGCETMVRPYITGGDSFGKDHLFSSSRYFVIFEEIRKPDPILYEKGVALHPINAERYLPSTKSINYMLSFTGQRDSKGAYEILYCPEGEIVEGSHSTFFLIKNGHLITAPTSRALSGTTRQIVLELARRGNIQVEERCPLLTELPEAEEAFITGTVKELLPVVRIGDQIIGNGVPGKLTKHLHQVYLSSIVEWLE

SMILES strings stand for the structures.

The results in this text go back to publication PMC10003956, “To the Understanding of Catalysis by D-Amino Acid Transaminases: A Case Study of the Enzyme from Aminobacterium colombiense” (Molecules, 2023).

In the test the target is T1, AmicoTA (Aminobacterium colombiense, UniProt D5EHC5).
T1 construct: gene Amico_1844; N-terminal His6-TEV tag kept for kinetics, cut for crystals; E. coli Rosetta (DE3) pLysS
The test is described as follows: half-reaction of PLP form, absorbance at […] nm. Type of test: binding.

Turning to `NCCC[C@@H](N)C(=O)O` [D-ornithine], binding was put at a Kd of 10 ± 1 mM.
